This data set deals with T1, HMGB1 (no His-tag) (UniProt P09429).
T1 sequence (looked up, limits assumed): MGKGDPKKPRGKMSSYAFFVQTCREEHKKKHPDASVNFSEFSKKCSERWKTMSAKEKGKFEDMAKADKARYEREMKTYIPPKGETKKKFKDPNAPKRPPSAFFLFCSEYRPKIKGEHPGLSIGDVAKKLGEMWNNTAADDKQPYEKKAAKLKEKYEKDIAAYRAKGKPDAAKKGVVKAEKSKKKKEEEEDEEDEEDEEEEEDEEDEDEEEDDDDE
Briefly: pull-down. Conditions: dose-dependently inhibits HMGB1 binding to His-TLR-2; 1-4 ug RNA, 4 C; purified recombinant protein; variant of R8c6_1.

Protein sequences can lack the tags named with them.

As for “GGGAGUACAGUAAGACACGUAGCACCAGUCUGACGUUUGUCGUCAGUGCCUGGACGUGCAGU [R8c6_1-18]”, the “functional effect of the aptamer” value is on record as “active”.

The values above are taken from patent US20120208867.
